PubChem BioAssay AID1259308 – NCATS, 2017
The whole screen tested about 59,000 reagents; shown is a random part of them. Over the whole deposit, about 1,510 (2.6%) got an active call. 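Calls use total luciferase alone and ignore viability, so some active siRNAs may act by altering cell number.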 A number with no mark means an inactive call. Not all columns of the deposit are shown. Reagent sequences are not shown.

Screen: 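Genes whose loss raises luciferase production in HEK293 cells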 (primary screen)
Cell system: human HEK293 embryonic kidney cells stably expressing firefly luciferase (HEK-CMV-Luc2-Hygro)
Reagent: single siRNA against human genes, 0.8 pmol siRNA per well
Duration: 72 h
Read-out: 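Luciferase light (ONE-Glo) measured on one replicate plate set and viability (CellTiter-Glo) on the other, scaled to a negative control siRNA, with robust z-scores and luciferase per cell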
Direction: total luciferase, z-score and total luciferase, % of control: higher = more reporter protein produced
Rule for the call: 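Active when the median/MAD z-score for overall luciferase is greater than 3; a gene was taken forward for validation with new siRNAs if at least two of its three siRNAs passed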
Calls: active = raised luciferase; inactive = no rise

WDR24 (WD repeat domain 24) [SID160751894] → total luciferase, z-score: 0.464; total luciferase, % of control: 91.1
WDR24 (WD repeat domain 24) [SID160751895] → total luciferase, z-score: 1.25; total luciferase, % of control: 107
WDR24 (WD repeat domain 24) [SID160751896] → total luciferase, z-score: -1.12; total luciferase, % of control: 59.7
GDPGP1 (GDP-D-glucose phosphorylase 1) [SID160766545] → total luciferase, z-score: -0.261; total luciferase, % of control: 76.7
GDPGP1 (GDP-D-glucose phosphorylase 1) [SID160766546] → total luciferase, z-score: 0.706; total luciferase, % of control: 95.9
GDPGP1 (GDP-D-glucose phosphorylase 1) [SID160766547] → total luciferase, z-score: 0.812; total luciferase, % of control: 98
KSR1 (kinase suppressor of ras 1) [SID160720957] → total luciferase, z-score: -0.0892; total luciferase, % of control: 80.1
KSR1 (kinase suppressor of ras 1) [SID160720958] → total luciferase, z-score: -1.86; total luciferase, % of control: 44.9
KSR1 (kinase suppressor of ras 1) [SID160720959] → total luciferase, z-score: -0.738; total luciferase, % of control: 67.2
IGFL4 (IGF like family member 4) [SID160733443] → total luciferase, z-score: 0.0918; total luciferase, % of control: 83.7
IGFL4 (IGF like family member 4) [SID160768203] → total luciferase, z-score: 2.36; total luciferase, % of control: 129
IGFL4 (IGF like family member 4) [SID160768204] → total luciferase, z-score: 1.88; total luciferase, % of control: 119
IGFL4 (IGF like family member 4) [SID160772765] → total luciferase, z-score: -0.522; total luciferase, % of control: 71.5
IGFL4 (IGF like family member 4) [SID160772766] → total luciferase, z-score: 1.37; total luciferase, % of control: 109
IGFL4 (IGF like family member 4) [SID160772767] → total luciferase, z-score: -0.642; total luciferase, % of control: 69.1
AGO3 (argonaute RISC catalytic component 3) [SID160760550] → total luciferase, z-score: -0.126; total luciferase, % of control: 79.4
AGO3 (argonaute RISC catalytic component 3) [SID160760551] → total luciferase, z-score: -2.03; total luciferase, % of control: 41.5
AGO3 (argonaute RISC catalytic component 3) [SID160760552] → total luciferase, z-score: -0.993; total luciferase, % of control: 62.1
RNF146 (ring finger protein 146) [SID160751013] → total luciferase, z-score: 1.44; total luciferase, % of control: 111
RNF146 (ring finger protein 146) [SID160751014] → total luciferase, z-score: 0.661; total luciferase, % of control: 95
RNF146 (ring finger protein 146) [SID160751015] → total luciferase, z-score: 0.918; total luciferase, % of control: 100
SHC2 (SHC adaptor protein 2) [SID160736929] → total luciferase, z-score: 0.782; total luciferase, % of control: 97.4
SHC2 (SHC adaptor protein 2) [SID160736930] → total luciferase, z-score: 1.27; total luciferase, % of control: 107
SHC2 (SHC adaptor protein 2) [SID160736931] → total luciferase, z-score: -0.716; total luciferase, % of control: 67.6
STRADA (STE20 related adaptor alpha) [SID160754258] → total luciferase, z-score: 2.6; total luciferase, % of control: 134
STRADA (STE20 related adaptor alpha) [SID160754259] → total luciferase, z-score: -0.594; total luciferase, % of control: 70.1
STRADA (STE20 related adaptor alpha) [SID160754260] → total luciferase, z-score: 1.32; total luciferase, % of control: 108
EXPH5 (exophilin 5) [SID160735410] → total luciferase, z-score: 1.36; total luciferase, % of control: 109
EXPH5 (exophilin 5) [SID160735411] → total luciferase, z-score: 0.405; total luciferase, % of control: 90
EXPH5 (exophilin 5) [SID160735415] → total luciferase, z-score: -0.277; total luciferase, % of control: 76.4
DNAJC12 (DnaJ heat shock protein family (Hsp40) member C12) [SID160745056] → total luciferase, z-score: -0.0901; total luciferase, % of control: 80.1
DNAJC12 (DnaJ heat shock protein family (Hsp40) member C12) [SID160745057] → total luciferase, z-score: -0.469; total luciferase, % of control: 72.6
DNAJC12 (DnaJ heat shock protein family (Hsp40) member C12) [SID160745058] → total luciferase, z-score: 3.51 (active); total luciferase, % of control: 152

An excerpt from above, reduced to “total luciferase, % of control”:
WDR24 (WD repeat domain 24) [SID160751896]: 59.7
GDPGP1 (GDP-D-glucose phosphorylase 1) [SID160766545]: 76.7
GDPGP1 (GDP-D-glucose phosphorylase 1) [SID160766546]: 95.9
GDPGP1 (GDP-D-glucose phosphorylase 1) [SID160766547]: 98
KSR1 (kinase suppressor of ras 1) [SID160720957]: 80.1
